PubChem BioAssay AID1259405, NCATS, 2018
Shown is an unselected part of about 50,000 reagents. About 4,000 of them (8%) were called active. 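Mouse siRNA library applied to hamster cells; one well for each siRNA.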 Reagents against one gene are numbered here. Reagent sequences are not shown.

Aim: 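Silenced genes that increase secreted GFP made by CHO cells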 (primary screen)
Cell system: Chinese hamster CHO-K1 ovary cells with stable secreted eGFP expression
Reagent: single siRNA against mouse genes, 0.8 pmol siRNA per well (2 µl of 400 nM stock)
Duration: 3 days
Measured: 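Per-well intracellular GFP measured by laser scanning cytometry, plus viability from ATP luminescence, each relative to plate median of non-targeting control wells, in %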
Direction: GFP, % of control: higher = more GFP per well, higher productivity; viability (ATP), % of control: higher = more viable cells (more ATP)
Rule for the call: 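Called active when intracellular GFP, relative to negative control, is at or above 120%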

| gene knocked down | reagent | GFP, % of control | viability (ATP), % of control | outcome |
| --- | --- | --- | --- | --- |
| Gpr35 | 1 | 75.1 | 75.3 | inactive |
| Gpr35 | 2 | 49 | 49.7 | inactive |
| Gpr35 | 3 | 92.5 | 69.6 | inactive |
| Dus1l | 1 | 128 | 94.6 | active |
| Dus1l | 2 | 79.8 | 103 | inactive |
| Dus1l | 3 | 82 | 85.7 | inactive |
| Sh2d1b2 | 1 | 54.9 | 53.9 | inactive |
| Sh2d1b2 | 2 | 89.4 | 49.1 | inactive |
| Sh2d1b2 | 3 | 84.2 | 82.6 | inactive |
| Rassf6 | 1 | 80.5 | 67.2 | inactive |
| Rassf6 | 2 | 82.8 | 81.3 | inactive |
| Rassf6 | 3 | 61 | 49.7 | inactive |
| Actn1 | 1 | 118 | 84.4 | inactive |
| Actn1 | 2 | 103 | 82.7 | inactive |
| Or52e5 | 1 | 100 | 74.2 | inactive |
| Or52e5 | 2 | 135 | 105 | active |
| Or52e5 | 3 | 67.3 | 96.2 | inactive |
| Gpr156 | 1 | 85.2 | 61.8 | inactive |
| Gpr156 | 2 | 86.8 | 74 | inactive |
| Gpr156 | 3 | 53.1 | 49.9 | inactive |
| Abcc9 | 1 | 150 | 69.9 | active |
| Abcc9 | 2 | 76.4 | 64.8 | inactive |
| Abcc9 | 3 | 46.6 | 65.6 | inactive |
| Ncapd3 | 1 | 69.8 | 76.6 | inactive |
| Ncapd3 | 2 | 65.3 | 65.6 | inactive |
| Ncapd3 | 3 | 75.1 | 78.3 | inactive |
| Otud6b | 1 | 99.8 | 69.2 | inactive |
| Otud6b | 2 | 68.3 | 59.2 | inactive |
| Otud6b | 3 | 79 | 60.4 | inactive |
| Epha10 | 1 | 39.4 | 45.2 | inactive |
| Epha10 | 2 | 57.6 | 60.7 | inactive |
| Epha10 | 3 | 42.9 | 50.7 | inactive |
| Or4c10 | 1 | 62.2 | 50.3 | inactive |
| Or4c10 | 2 | 55.3 | 42.7 | inactive |
| Or4c10 | 3 | 43.7 | 122 | inactive |
| Trappc13 | 1 | 75.2 | 75.6 | inactive |
| Trappc13 | 2 | 63.5 | 67.3 | inactive |
| Trappc13 | 3 | 89.4 | 92.9 | inactive |
| Ran | 1 | 59.8 | 44.2 | inactive |
| Ran | 2 | 85.5 | 96.7 | inactive |
| Ran | 3 | 147 | 52.2 | active |
| Ppie | 1 | 95.2 | 109 | inactive |
| Ppie | 2 | 43.6 | 50.5 | inactive |
| Ppie | 3 | 18.7 | 31.7 | inactive |
| Surf4 | 1 | 66.9 | 55.7 | inactive |
| Surf4 | 2 | 89.2 | 83.3 | inactive |
| Surf4 | 3 | 90.9 | 97.2 | inactive |
| Zfp791 | 1 | 81.1 | 64.9 | inactive |
| Zfp791 | 2 | 97.7 | 113 | inactive |
| Zfp791 | 3 | 42.7 | 85.6 | inactive |
| Vmn1r177 | 1 | 85.9 | 51.1 | inactive |
| Vmn1r177 | 2 | 94.4 | 60.1 | inactive |
| Vmn1r177 | 3 | 50.5 | 124 | inactive |
| Slain1 | 1 | 54 | 62.1 | inactive |
| Slain1 | 2 | 99.9 | 91.1 | inactive |
| Slain1 | 3 | 52 | 48.1 | inactive |
| Pira2 | 1 | 135 | 81.7 | active |
| Pira2 | 2 | 55.9 | 51 | inactive |
| Pira2 | 3 | 23.5 | 28.3 | inactive |
| Or8k41 | 1 | 49.6 | 57.5 | inactive |
| Or8k41 | 2 | 47.8 | 67.8 | inactive |
| Or8k41 | 3 | 53 | 79.4 | inactive |
| Erlin2 | 1 | 76 | 54.3 | inactive |
| Erlin2 | 2 | 60.2 | 72.3 | inactive |
| Erlin2 | 3 | 147 | 138 | active |
| Ccdc73 | 1 | 79.7 | 63.2 | inactive |
| Ccdc73 | 2 | 71.6 | 68.2 | inactive |
| Ccdc73 | 3 | 116 | 125 | inactive |
| Pih1d1 | 1 | 123 | 113 | active |
| Pih1d1 | 2 | 107 | 55.9 | inactive |
| Pih1d1 | 3 | 48.6 | 63.2 | inactive |
| Pcdhb9 | 1 | 64.8 | 91.4 | inactive |
| Pcdhb9 | 2 | 39.2 | 42.1 | inactive |
| Pcdhb9 | 3 | 77.8 | 71 | inactive |
| Ccdc198 | 1 | 70.9 | 75.9 | inactive |
| Ccdc198 | 2 | 93.6 | 83 | inactive |
| Ccdc198 | 3 | 71 | 72.6 | inactive |
| Trpm4 | 1 | 113 | 103 | inactive |
| Trpm4 | 2 | 90.4 | 81 | inactive |
| Trpm4 | 3 | 98 | 113 | inactive |
| Cyp4f18 | 1 | 72 | 88.7 | inactive |
| Cyp4f18 | 2 | 117 | 93.3 | inactive |
| Cyp4f18 | 3 | 85.7 | 83.8 | inactive |
| Optn | 1 | 90.1 | 71.2 | inactive |
| Optn | 2 | 85.4 | 64.5 | inactive |
| Optn | 3 | 78.4 | 139 | inactive |

Called active, of those listed so far:
| gene knocked down | reagent | GFP, % of control | viability (ATP), % of control | outcome |
| --- | --- | --- | --- | --- |
| Dus1l | 1 | 128 | 94.6 | active |
| Or52e5 | 2 | 135 | 105 | active |
| Abcc9 | 1 | 150 | 69.9 | active |
| Ran | 3 | 147 | 52.2 | active |
| Pira2 | 1 | 135 | 81.7 | active |
| Erlin2 | 3 | 147 | 138 | active |
| Pih1d1 | 1 | 123 | 113 | active |
